# Assay results published in PMC3951250.
# Amino acid sequences for entries named in this document (tags omitted). Residues count along the entry.
# UniProt P46937: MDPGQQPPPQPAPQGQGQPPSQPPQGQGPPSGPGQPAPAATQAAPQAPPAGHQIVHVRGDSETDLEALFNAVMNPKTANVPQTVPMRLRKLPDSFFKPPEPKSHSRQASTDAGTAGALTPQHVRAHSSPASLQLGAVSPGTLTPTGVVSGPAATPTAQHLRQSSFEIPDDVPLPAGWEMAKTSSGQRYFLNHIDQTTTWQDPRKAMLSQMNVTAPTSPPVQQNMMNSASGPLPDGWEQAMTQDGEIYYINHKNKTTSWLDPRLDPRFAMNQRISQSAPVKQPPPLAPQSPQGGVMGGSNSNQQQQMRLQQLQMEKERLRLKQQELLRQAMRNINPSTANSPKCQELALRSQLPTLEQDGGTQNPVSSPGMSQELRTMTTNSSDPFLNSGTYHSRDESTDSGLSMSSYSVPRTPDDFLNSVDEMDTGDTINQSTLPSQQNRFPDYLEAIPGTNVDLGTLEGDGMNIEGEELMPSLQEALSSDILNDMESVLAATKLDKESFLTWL
# UniProt P32297, residues 32-505: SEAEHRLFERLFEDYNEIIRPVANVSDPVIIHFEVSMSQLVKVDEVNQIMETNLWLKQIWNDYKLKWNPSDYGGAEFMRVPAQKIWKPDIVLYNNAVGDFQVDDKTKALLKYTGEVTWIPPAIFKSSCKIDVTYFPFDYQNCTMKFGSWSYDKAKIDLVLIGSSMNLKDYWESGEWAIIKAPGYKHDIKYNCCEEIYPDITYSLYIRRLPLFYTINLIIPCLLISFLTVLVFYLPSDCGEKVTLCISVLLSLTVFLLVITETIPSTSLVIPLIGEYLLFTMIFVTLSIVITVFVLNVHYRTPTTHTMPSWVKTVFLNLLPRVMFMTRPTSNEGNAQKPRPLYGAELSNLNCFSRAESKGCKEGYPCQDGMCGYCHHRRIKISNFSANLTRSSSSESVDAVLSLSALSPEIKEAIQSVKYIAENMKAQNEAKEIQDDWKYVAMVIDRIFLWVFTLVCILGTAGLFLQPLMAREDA
# UniProt P30532, residues 23-468: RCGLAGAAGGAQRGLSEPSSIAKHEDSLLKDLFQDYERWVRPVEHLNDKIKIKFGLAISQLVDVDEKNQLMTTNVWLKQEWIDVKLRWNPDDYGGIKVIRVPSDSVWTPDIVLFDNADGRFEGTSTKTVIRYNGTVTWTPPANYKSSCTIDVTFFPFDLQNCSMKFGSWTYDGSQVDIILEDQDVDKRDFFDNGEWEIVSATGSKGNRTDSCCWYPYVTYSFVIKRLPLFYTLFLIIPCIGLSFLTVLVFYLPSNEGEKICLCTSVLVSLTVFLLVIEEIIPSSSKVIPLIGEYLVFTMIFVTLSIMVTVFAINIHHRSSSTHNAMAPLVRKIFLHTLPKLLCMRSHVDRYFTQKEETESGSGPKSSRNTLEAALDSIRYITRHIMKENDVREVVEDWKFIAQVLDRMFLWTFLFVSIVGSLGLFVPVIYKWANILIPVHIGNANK
# UniProt P30926, residues 22-498: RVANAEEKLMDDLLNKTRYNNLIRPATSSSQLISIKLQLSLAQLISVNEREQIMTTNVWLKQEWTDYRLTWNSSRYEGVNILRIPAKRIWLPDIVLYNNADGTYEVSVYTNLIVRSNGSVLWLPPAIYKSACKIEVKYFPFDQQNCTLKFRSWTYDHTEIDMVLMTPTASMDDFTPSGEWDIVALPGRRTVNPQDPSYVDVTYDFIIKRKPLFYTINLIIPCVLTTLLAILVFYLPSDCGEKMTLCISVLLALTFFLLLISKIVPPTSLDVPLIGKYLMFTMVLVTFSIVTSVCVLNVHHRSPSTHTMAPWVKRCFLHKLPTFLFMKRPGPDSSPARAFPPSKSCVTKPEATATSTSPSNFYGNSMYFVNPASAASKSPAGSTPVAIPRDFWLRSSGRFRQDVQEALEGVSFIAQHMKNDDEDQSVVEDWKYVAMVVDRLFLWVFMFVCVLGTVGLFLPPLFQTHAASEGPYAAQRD
# These are yes or no findings as the source states them, for the method shown. In cells and extracts the contact can be indirect. Some binding calls cover weakened binding; strength is not graded here.
# B1: p63 (protein, UniProt Q9H3D4 1-680)
# chain: MNFETSRCATLQYCPDPYIQRFVETPAHFSWKESYYRSTMSQSTQTNEFLSPEVFQHIWDFLEQPICSVQPIDLNFVDEPSEDGATNKIEISMDCIRMQDSDLSDPMWPQYTNLGLLNSMDQQIQNGSSSTSPYNTDHAQNSVTAPSPYAQPSSTFDALSPSPAIPSNTDYPGPHSFDVSFQQSSTAKSATWTYSTELKKLYCQIAKTCPIQIKVMTPPPQGAVIRAMPVYKKAEHVTEVVKRCPNHELSREFNEGQIAPPSHLIRVEGNSHAQYVEDPITGRQSVLVPYEPPQVGTEFTTVLYNFMCNSSCVGGMNRRPILIIVTLETRDGQVLGRRCFEARICACPGRDRKADEDSIRKQQVSDSTKNGDGTKRPFRQNTHGIQMTSIKKRRSPDDELLYLPVRGRETYEMLLKIKESLELMQYLPQHTIETYRQQQQQQHQHLLQKQTSIQSPSSYGNSSPPLNKMNSMNKLPSVSQLINPQQRNALTPTTIPDGMGANIPMMGTHMPMAGDMNGLSPTQALPPPLSMPSTSHCTPPPPYPTDCSIVSFLARLGCSSCLDYFTTQGLTTIYQIEHYSMDDLASLKIPEQFRHAIWKGILDHRQLHEFSSPSHLLRTPSSASTVSVGSSETRGERVIDAVRFTLRQTISFPPRDEWNDFNFDMDARRNKQQRIKEEGE
# Columns and labels:
# [1] = target: Recombinant GST labeled YAP1 protein (UniProt P46937); assay: pull-down; GST-YAP1 or GST alone on glutathione beads (4 hours), then incubated for 4 hours with lysates of KYSE510 cells; Western blot; only the target purified
# [2] = target: Yes-associated protein 1 (YAP1) (human (endogenous in KYSE510)) (UniProt P46937); assay: co-IP; endogenous proteins of KYSE510 cells; lysis in RIPA buffer (10 mM Tris pH 7.4, 150 mM NaCl, 1% Triton X-100, 0.1% sodium deoxycholate, 0.1% SDS, 5 mM EDTA); primary antibody, protein A-agarose beads; Western blot
# [3] = target: Yes-associated protein 1 (YAP1) (human (endogenous in KYSE510)) (UniProt P46937); assay: co-IP; KYSE510 cells transfected with tGFP-CHRNA3; RIPA lysate, primary antibody, protein A-agarose beads; Western blot
# [4] = target: Yes-associated protein 1 (YAP1) (human (endogenous in KYSE510)) (UniProt P46937); assay: co-IP; endogenous proteins of KYSE510 cells; lysis in RIPA buffer (10 mM Tris pH 7.4, 150 mM NaCl, 1% Triton X-100, 0.1% sodium deoxycholate, 0.1% SDS, 5 mM EDTA); primary antibody, protein A-agarose beads; Western blot; remark: listed apart in the source
Molecule,binding [2],other results
CHRNA3 (neuronal acetylcholine receptor subunit alpha-3) (from UniProt P32297 32-505),binds,binding [1]: binds
CHRNA5 (neuronal acetylcholine receptor subunit alpha-5) (from UniProt P30532 23-468),binds,
CHRNB4 (from UniProt P30926 22-498) (receptor),binds,
tGFP-labeled CHRNA3 (from UniProt P32297 32-505) (receptor),,binding [3]: binds
B1,,binding [4]: binds
